Substitutions are numbered along the chain they refer to. Names may count otherwise.

These results are taken from patent US20050244864A1, “Development and use of fluorescent probes of unbound analytes” (priority 2004, published 2005).

This data set can be described thus: Mutant probe screening: baseline fluorescence ratio Ro and fatty acid response phenotype. In kind it is binding. The settings on record: fluorescence ratio for zero FFAu concentration. How it is done: The intensity ratio (“R” value) for a given probe is determined. The ratio is calculated using the following formula: R=Fλ1/Fλ2 wherein, Fλ1, is the measured fluorescence intensities (intensity of sample with probe present minus intensity of sample without probe present) at wavelength 1 and Fλ2 is the measured fluorescence intensities (intensity of sample with probe present minus intensity of sample without probe present) at wavelength 2. Then, for a given probe, ΔR, the difference in R value between the measurement in the presence of the analyte and in the absence of the analyte, is calculated as follows: ΔR=R+analyte−R0 The ΔR value for a given probe is then compared to a reference probe, for example, ADIFAB or ADIFAB2, by ΔR/ΔRreference. This value is an indication of how dissimilar the new probe (derived by mutation of the template) is to the reference. By this method, probes with new and useful characteristics may be identified. Measurements of fluorescence intensities are obtained using standard techniques.
Plates were prepared and read in two stages. First, complexes and fatty acid free BSA were diluted to 6 μM BSA in HEPES and added to the 96-well plate at 300 μL per well. A MultiProbe II HT (Perkin Elmer) (an automated liquid handling system) was used to facilitate plate preparation for high throughput screening, but any automated or manual pipetting system will suffice. The background fluorescence was then measured at the same wavelengths as used for ADIFAB2 using a Fluorolog-3 spectrofluorometer with an external Micromax 384 fluorescence plate reader (Jobin Yvon). In the second stage, 30 μL aliquots of the mutant probes were added to multiple wells of the plate, one for each fatty acid and one with fatty acid free BSA only, and the fluorescence intensity at each wavelength was again measured on the plate reader. After subtraction of the background fluorescence, the fluorescence ratio of each well was calculated.
The fluorescence response was quantitatively compared to ADIFAB2 to search for changes in magnitude and fatty acid profile; for example the response to one fatty acid relative to another. For each probe the ratio differences (AR) between wells with each fatty acid compared to a corresponding well with fatty acid free BSA were recorded. The relative response compared to ADIFAB2 was calculated by dividing AR for each fatty acid by that for ADIFAB2 (ΔR/ΔRAD2). Probes that show large (ΔR/ΔRAD2) and different (ΔR/ΔRAD2) for different fatty acids were chosen for larger scale production and calibration. The methods described above can be used to screen other fatty acids and/or other unbound metabolites using other plate readers. We have attained equivalent results, for example, using the Gemini EM dedicated fluorescence plate reader (Molecular Devices).
Screening was conducted by evaluating ΔR/ΔRreference as described in paragraphs 0053-0055 and Example 1 for the following fatty acids: palmitate, palmitoleate, stearate, oleate, linoleate, linolenate and arachidonate, where the reference was to ADIFAB2. The screening rate was increased by use of 384 well plates. In this case the total well volume was reduced to 100 μL and the volume of probe used per well was 10 μL. Because the identity of each mutant probe was unknown in this example, the probes of interest were organized according to phenotype. Typically, phenotypic clusters could be generated by grouping unknown probes that gave Ro and ΔR/ΔRAD2 values within 10 to 20% of each other. The clone ID specifies the second library and well position of each clone. The fluorescence ratio for zero FFAu concentration (Ro) is shown in the second column. The remaining 7 columns are the ratios of the fluorescence response (R-Ro) for each probe relative to ADIFAB2 for arachidonate, linolenate, linoleate, oleate, palmitate, palmitoleate and stearate. […]

B1: L72A: acrylodan-labeled rI-FABP clone with L72A (the template mutein) (protein, listed as Rattus norvegicus)
chain: AFDGTWKVDRNENYEKFMEKMGINVVKRKLGAHDNLKLTITQEGNKFTVKESSNFRNIDVVFELGVDFAYSAADGTELTGTWTMEGNKLVGKFKRVDNGKELIAVREISGNELIQTYTYEGVEAKRIFKKDRGHHHHHH
modifications: acrylodan label; MUTAGEN (72)...(72) rat intestinal fatty acid binding protein with alanine substitution for leucine at position 72
Take B1: the Ro came out at 0.17.

B2: L2P12 G9: acrylodan-labeled rI-FABP-L72A mutein: M18 L, G31 WT, F55 WT, A73 V (protein, UniProt P02693 2-132, looked up, variant M18L L72A A73V)
Fatty acid-binding protein, …: AFDGTWKVDRNENYEKFLEKMGINVVKRKLGAHDNLKLTITQEGNKFTVKESSNFRNIDVVFELGVDFAYSAVDGTELTGTWTMEGNKLVGKFKRVDNGKELIAVREISGNELIQTYTYEGVEAKRIFKKE
modifications: acrylodan label
notes: acrylodan-labeled rI-FABP-L72A mutein: M18 L, G31 WT, F55 WT, A73 V
Consider B2, for which the Ro came to 0.45. For the same molecule, the Ro (listed as L2P12G9) is recorded as 0.46.

B3: L78F, L72A: acrylodan-labeled rI-FABP mutein L78F, L72A (protein)
chain: B2 Fatty acid-binding protein, … with L18M, V73A, L78F
For B3, the Ro is given as 0.35.

B4: L1P9 G10: acrylodan-labeled rI-FABP mutein: Y14 wt, L38 I, L72 G, Y117 wt (protein, UniProt P02693 2-132, looked up, variant L38I L72G)
Fatty acid-binding protein, …: B2 Fatty acid-binding protein, … with L18M, L38I, A72G, V73A
modifications: acrylodan label
For B4, the Ro was found to be 0.29.

B5: L1P1 F7: acrylodan-labeled rI-FABP mutein: Y14 L, L38 M, L72 wt, Y117 F (protein, UniProt P02693 2-132, looked up, variant Y14L L38M Y117F)
Fatty acid-binding protein, …: B2 Fatty acid-binding protein, … with Y14L, L18M, L38M, A72L, V73A, Y117F
modifications: acrylodan label
notes: acrylodan-labeled rI-FABP mutein: Y14 L, L38 M, L72 wt, Y117 F
As to B5, the Ro is on record as 0.22.

B6: L1P11 F12: acrylodan-labeled rI-FABP mutein: Y14 L, L38 I, L72 wt, Y117 wt (protein, UniProt P02693 2-132, looked up, variant Y14L L38I)
Fatty acid-binding protein, …: B2 Fatty acid-binding protein, … with Y14L, L18M, L38I, A72L, V73A
modifications: acrylodan label
For the molecule B6, the Ro came out at 0.27.

B7: D74F, L72A: acrylodan-labeled rI-FABP mutein D74F, L72A (protein)
chain: B2 Fatty acid-binding protein, … with L18M, V73A, D74F
Consider B7, for which the Ro came out at 0.25.

B8: A73F, L72A: acrylodan-labeled rI-FABP mutein A73F, L72A (protein)
chain: B2 Fatty acid-binding protein, … with L18M, V73F
For B8, the Ro was 0.33.

B9: L72M: acrylodan-labeled rI-FABP mutein L72M (protein)
chain: B2 Fatty acid-binding protein, … with L18M, A72M, V73A
With B9, the Ro stood at 0.38.

B10: W82F, L72A: acrylodan-labeled rI-FABP mutein W82F, L72A (protein)
chain: B2 Fatty acid-binding protein, … with L18M, V73A, W82F
With B10, the Ro worked out at 0.27.

B11: L1P7 B11: acrylodan-labeled rI-FABP mutein: Y14 I, L38 I, L72 V, Y117 wt (protein, UniProt P02693 2-132, looked up, variant Y14I L38I L72V)
Fatty acid-binding protein, …: B2 Fatty acid-binding protein, … with Y14I, L18M, L38I, A72V, V73A
modifications: acrylodan label
notes: acrylodan-labeled rI-FABP mutein: Y14 I, L38 I, L72 V, Y117 wt
B11: the Ro came out at 0.21.

B12: Y117S, L72A: acrylodan-labeled rI-FABP mutein Y117S, L72A (protein)
chain: B2 Fatty acid-binding protein, … with L18M, V73A, Y117S
For B12, the Ro is recorded as 0.36.

B13: L1P14 A9: acrylodan-labeled rI-FABP mutein: Y14 L, L38 wt, L72 G, Y117 I (protein, UniProt P02693 2-132, looked up, variant Y14L L72G Y117I)
Fatty acid-binding protein, …: B2 Fatty acid-binding protein, … with Y14L, L18M, A72G, V73A, Y117I
modifications: acrylodan label
notes: acrylodan-labeled rI-FABP mutein: Y14 L, L38 wt, L72 G, Y117 I
Regarding B13, the Ro is reported as 0.25.

B14: L2P21 C1: acrylodan-labeled rI-FABP-L72A mutein: M18 I, G31 Y, F55 WT, A73 V (protein, UniProt P02693 2-132, looked up, variant M18I G31Y L72A A73V)
Fatty acid-binding protein, …: B2 Fatty acid-binding protein, … with L18I, G31Y
modifications: acrylodan label
notes: acrylodan-labeled rI-FABP-L72A mutein: M18 I, G31 Y, F55 WT, A73 V
B14: the Ro was found to be 0.39. The Ro (listed as L2P21C1) is given as 0.36.

B15: R106W, L72A: acrylodan-labeled rI-FABP mutein R106W, L72A (protein)
chain: B2 Fatty acid-binding protein, … with L18M, V73A, R106W
Turning to B15, the Ro was determined as 0.24.

B16: L1P12 G10: acrylodan-labeled rI-FABP mutein: Y14 I, L38 wt, L72 wt, Y117 wt (protein, UniProt P02693 2-132, looked up, variant Y14I)
Fatty acid-binding protein, …: B2 Fatty acid-binding protein, … with Y14I, L18M, A72L, V73A
modifications: acrylodan label
Turning to B16, the Ro amounted to 0.35.

B17: Y117A, L72A: acrylodan-labeled rI-FABP mutein Y117A, L72A (protein)
chain: B2 Fatty acid-binding protein, … with L18M, V73A, Y117A
Take B17: the Ro is 0.28.

B18: L1P12 F12: acrylodan-labeled rI-FABP mutein: Y14 L, L38 wt, L72 G, Y117 V (protein, UniProt P02693 2-132, looked up, variant Y14L L72G Y117V)
Fatty acid-binding protein, …: B2 Fatty acid-binding protein, … with Y14L, L18M, A72G, V73A, Y117V
modifications: acrylodan label
notes: acrylodan-labeled rI-FABP mutein: Y14 L, L38 wt, L72 G, Y117 V
As to B18, the Ro was found to be 0.28.

B19: L1P2 F7: acrylodan-labeled rI-FABP mutein: Y14 I, L38 wt, L72 G, Y117 V (protein, UniProt P02693 2-132, looked up, variant Y14I L72G Y117V)
Fatty acid-binding protein, …: B2 Fatty acid-binding protein, … with Y14I, L18M, A72G, V73A, Y117V
modifications: acrylodan label
notes: acrylodan-labeled rI-FABP mutein: Y14 I, L38 wt, L72 G, Y117 V
As for B19, the Ro is 0.32.

B20: L1P17 A8: acrylodan-labeled rI-FABP mutein: Y14 wt, L38 M, L72 G, Y117 F (protein, UniProt P02693 2-132, looked up, variant L38M L72G Y117F)
Fatty acid-binding protein, …: B2 Fatty acid-binding protein, … with L18M, L38M, A72G, V73A, Y117F
modifications: acrylodan label
notes: acrylodan-labeled rI-FABP mutein: Y14 wt, L38 M, L72 G, Y117 F
Regarding B20, the Ro was 0.24.

B21: A73I, L72A: acrylodan-labeled rI-FABP mutein A73I, L72A (protein)
chain: B2 Fatty acid-binding protein, … with L18M, V73I
As to B21, the Ro is given as 0.27.

B22: L1P3 D6: acrylodan-labeled rI-FABP mutein: Y14 L, L38 wt, L72 wt, Y117 wt (protein, UniProt P02693 2-132, looked up, variant Y14L)
Fatty acid-binding protein, …: B2 Fatty acid-binding protein, … with Y14L, L18M, A72L, V73A
modifications: acrylodan label
For the molecule B22, the Ro was determined as 0.24.

B23: L72G: acrylodan-labeled rI-FABP mutein L72G (protein)
chain: B2 Fatty acid-binding protein, … with L18M, A72G, V73A
Turning to B23, the Ro is 0.28.
